According to paper PMC5855981:
A negative result means that nothing was seen under these conditions. At least one verdict rests on a figure or table, not on a statement of the authors. Construct, isoform or probe ends are uncertain for at least one entry. Weaker means in comparison with the reference protein, sequence or condition of that experiment.

Experiments:
Test in all cases: fluorescence plate assay
Conditions in all cases: 20 mM HEPES pH 7.5, 150 mM NaCl, 6 mM KCl, 2 mM MgCl2, plate assay: 10 nM aptamer (300 nM in FBS assays), 1 h, room temperature, commercial protein, label: 5'-Alexa 488
[1] = system: thrombin (THR)
[2] = target: porcine pancreas elastase (PPE) (porcine) (UniProt P00772)
[3] = system: chymotrypsin (CHY)
[4] = target: lysozyme (LYS) (UniProt P00698)
[5] = target: bovine serum albumin (BSA) (bovine) (UniProt P02769)
[6] = 150 mM NaCl, did not bind strongly, fully 2'-OMe, synthetic backbone, letters put together from the description
[7] = 500 mM NaCl, 66 ug/mL yeast tRNA, fully 2'-OMe, synthetic backbone, letters put together from the description
[8] = 150 mM NaCl, did not bind strongly, single-stranded DNA

“ATACGACTCACTATTAGGGCCCTGTTCGCTATCCCCCATCCCCCGATTGCTGCTAGACTACTGACTAC [2mHNE-5]”: binds more weakly [1, 6]; no binding [1, 7]; binds more weakly [2, 6]. “ATACGACTCACTATTAGGGCCCTGTTCGCTATCCCCCATCCCCCGATTGCTGCTAGACTACTGACTAC [2mHNE-5]”: no binding [2, 7]; binds more weakly [3, 6]; no binding [3, 7]. “ATACGACTCACTATTAGGGCCCTGTTCGCTATCCCCCATCCCCCGATTGCTGCTAGACTACTGACTAC [2mHNE-5]”: binds more weakly ([4]; 150 mM NaCl, some affinity, fully 2'-OMe, synthetic backbone, letters put together from the description); no binding [4, 7]; binds more weakly [5, 6]. “ATACGACTCACTATTAGGGCCCTGTTCGCTATCCCCCATCCCCCGATTGCTGCTAGACTACTGACTAC [2mHNE-5]”: no binding [5, 7].

“TAGCGATACTGCGTGGGTTGGGGCGGGTAGGGCCAGCAGTCTCGT [DNA-I]”: binds more weakly [1, 8]; binds more weakly [2, 8]; binds more weakly [3, 8]. “TAGCGATACTGCGTGGGTTGGGGCGGGTAGGGCCAGCAGTCTCGT [DNA-I]”: binds more weakly ([4]; 150 mM NaCl, some affinity, single-stranded DNA); binds more weakly [5, 8].
